Here are results for three substances from publication PMC4691890.

The chains behind the UniProt entries cited, without tags or fusion partners. Where a name states a change or a piece, a line headed by the entry shows the natural chain unless it says otherwise. A line that says so, or that is headed by a name, gives the form on record, which may keep a tag or linker.
UniProt O14727: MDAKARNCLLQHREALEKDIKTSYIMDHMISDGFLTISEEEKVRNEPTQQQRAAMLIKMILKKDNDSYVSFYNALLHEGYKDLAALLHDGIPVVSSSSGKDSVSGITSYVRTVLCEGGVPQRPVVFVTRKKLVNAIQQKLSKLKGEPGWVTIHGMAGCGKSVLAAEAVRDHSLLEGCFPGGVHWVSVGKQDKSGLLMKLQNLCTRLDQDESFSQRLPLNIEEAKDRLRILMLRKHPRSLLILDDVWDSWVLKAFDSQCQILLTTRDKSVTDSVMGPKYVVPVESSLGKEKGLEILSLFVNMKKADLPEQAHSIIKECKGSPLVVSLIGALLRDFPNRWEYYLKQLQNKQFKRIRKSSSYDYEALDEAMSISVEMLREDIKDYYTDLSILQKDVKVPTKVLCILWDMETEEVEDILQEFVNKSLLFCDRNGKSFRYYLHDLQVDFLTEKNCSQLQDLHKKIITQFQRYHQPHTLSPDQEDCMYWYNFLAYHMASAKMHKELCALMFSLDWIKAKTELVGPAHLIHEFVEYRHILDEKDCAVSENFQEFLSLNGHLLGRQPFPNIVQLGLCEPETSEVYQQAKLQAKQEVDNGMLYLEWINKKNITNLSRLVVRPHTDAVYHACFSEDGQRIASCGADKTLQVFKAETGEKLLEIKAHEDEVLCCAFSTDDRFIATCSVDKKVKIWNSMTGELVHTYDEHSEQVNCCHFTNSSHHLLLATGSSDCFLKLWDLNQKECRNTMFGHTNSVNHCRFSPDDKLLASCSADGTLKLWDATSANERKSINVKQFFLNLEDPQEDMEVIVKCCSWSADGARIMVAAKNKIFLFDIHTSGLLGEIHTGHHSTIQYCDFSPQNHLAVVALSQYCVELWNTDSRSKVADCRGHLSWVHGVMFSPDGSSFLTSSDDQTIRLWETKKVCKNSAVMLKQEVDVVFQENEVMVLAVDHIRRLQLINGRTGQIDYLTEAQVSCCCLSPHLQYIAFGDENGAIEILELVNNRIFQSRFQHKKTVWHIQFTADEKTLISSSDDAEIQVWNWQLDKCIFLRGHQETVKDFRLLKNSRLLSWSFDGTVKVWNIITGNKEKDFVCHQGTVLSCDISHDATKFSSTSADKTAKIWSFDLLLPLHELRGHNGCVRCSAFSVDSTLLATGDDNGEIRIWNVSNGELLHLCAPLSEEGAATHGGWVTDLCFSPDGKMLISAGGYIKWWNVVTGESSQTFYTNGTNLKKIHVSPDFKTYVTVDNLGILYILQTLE
UniProt P00004: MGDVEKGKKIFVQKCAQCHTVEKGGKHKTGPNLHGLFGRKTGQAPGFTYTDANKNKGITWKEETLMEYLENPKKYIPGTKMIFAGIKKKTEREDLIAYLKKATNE
horse CytC G56K (P00004, form named): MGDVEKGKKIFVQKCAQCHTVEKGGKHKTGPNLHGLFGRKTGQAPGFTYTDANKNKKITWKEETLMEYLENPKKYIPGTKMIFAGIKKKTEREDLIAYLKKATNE
horse CytC I81E (P00004, form named): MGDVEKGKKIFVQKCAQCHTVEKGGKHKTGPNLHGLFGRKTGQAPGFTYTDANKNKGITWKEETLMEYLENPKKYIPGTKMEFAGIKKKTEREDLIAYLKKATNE
horse CytC P76E (P00004, form named): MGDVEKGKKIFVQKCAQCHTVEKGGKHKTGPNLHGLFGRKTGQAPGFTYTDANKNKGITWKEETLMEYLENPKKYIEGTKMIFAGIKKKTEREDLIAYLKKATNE

Results are given in words; binding and its absence hold for the method and conditions named.

In assay [1] the target is full-length human Apaf-1 (residues 1–1248) (human) (UniProt O14727). As to the kind of experiment: ITC; Apaf-1 4 μM, CytC 60 μM; 100 mM KCl, 20 mM HEPES pH 7.5; 22°C; VP-ITC; both purified. (In general: ITC needs no label: the signal is the heat of the interaction.)
Assay [2] has the same target. As to the kind of experiment: SEC; gel filtration of apoptosome formation: Apaf-1 with CytC in the presence of 1 mM dATP; both purified.
For assay [3] the target is unchanged. As to the kind of experiment: SEC; Apaf-1 incubated with CytC at a molar ratio of 1:2, Superdex-200 increase 5/150; 100 mM KCl, 20 mM HEPES pH 7.5, 5 mM DTT; fractions on SDS-PAGE; no dATP named; both purified.

Turning to “horse CytC G56K (from UniProt P00004 1-105)”, the binding result is reported as “no binding (tested: Apaf-1 4 μM, CytC 60 μM)” in assay [1]; “no binding” in assay [2]; “no binding (tested: molar ratio of 1:2)” in assay [3].
Consider “horse CytC I81E (from UniProt P00004 1-105)”, for which the binding entry is recorded as “no binding (tested: Apaf-1 4 μM, CytC 60 μM)” in assay [1]; “no binding” in assay [2]; “no binding (tested: molar ratio of 1:2)” in assay [3].
For “horse CytC P76E (from UniProt P00004 1-105)”, the binding result in assay [1] is recorded as “no binding (tested: Apaf-1 4 μM, CytC 60 μM)”; in assay [2], “no binding”; in assay [3] it was “no binding (tested: molar ratio of 1:2)”.
